In the test the target is Beclin1/BECN1 (human (endogenous in PANC-1)) (UniProt Q14457). Description: co-IP; endogenous proteins from PANC-1 lysates in RIPA lysis buffer (50 mM Tris-HCl pH 7.4, 150 mM NaCl, 1% Triton X-100, 10 mM NaF, 1 mM EDTA); primary antibody overnight, protein A/G magnetic beads 2 h at 4 °C, western blot; cells with PVT1 knockdown, PVT1 overexpression, miR-619-5p mimics and/or gemcitabine (1 μM). (In general: Immunoblotting shows a protein as a band on a membrane.)

The chains behind the UniProt entries cited, without tags or fusion partners.
UniProt Q14457: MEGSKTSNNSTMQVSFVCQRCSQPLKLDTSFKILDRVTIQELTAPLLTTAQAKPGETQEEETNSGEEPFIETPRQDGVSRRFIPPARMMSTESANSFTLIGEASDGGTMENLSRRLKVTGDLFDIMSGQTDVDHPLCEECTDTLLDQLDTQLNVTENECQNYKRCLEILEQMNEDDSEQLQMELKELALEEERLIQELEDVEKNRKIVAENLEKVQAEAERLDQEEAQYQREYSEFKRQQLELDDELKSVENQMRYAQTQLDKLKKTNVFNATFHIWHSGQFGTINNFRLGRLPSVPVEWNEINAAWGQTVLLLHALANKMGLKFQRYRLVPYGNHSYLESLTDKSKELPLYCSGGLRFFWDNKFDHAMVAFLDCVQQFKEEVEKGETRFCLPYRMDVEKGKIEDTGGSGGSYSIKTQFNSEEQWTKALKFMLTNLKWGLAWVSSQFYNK
UniProt P10415: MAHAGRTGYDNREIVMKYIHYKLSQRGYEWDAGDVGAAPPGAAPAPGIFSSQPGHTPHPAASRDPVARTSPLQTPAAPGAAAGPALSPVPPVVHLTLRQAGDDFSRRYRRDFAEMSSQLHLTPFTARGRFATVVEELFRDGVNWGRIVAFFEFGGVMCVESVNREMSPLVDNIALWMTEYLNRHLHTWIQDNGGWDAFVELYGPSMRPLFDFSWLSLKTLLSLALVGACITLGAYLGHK

These are yes or no findings as the source states them, for the method shown. Binding seen in cells or lysates may run through a third protein. Some binding calls cover weakened binding; strength is not graded here.

Bcl2 (from UniProt P10415 1-239): the binding result is on record as “binds”.
